Measured values reported in PubChem BioAssay (EPA / NIEHS).
The shares of active, inactive and inconclusive entries below differ from those in the screen. The calls were made as follows: active = hit-call score of the fitted dose curve at least 0.9, where 1 is the maximum; inconclusive = response in the unintended direction; inactive = score below 0.9. Where the call is inconclusive, the potency comes from a doubtful curve fit.

tested on: frog Androgen Receptor (AR), gene 399456; assay: ATG_frAR_XSP1: Attagene TRANS-FACTORIAL Multi-Species (XSP1) HepG2 Assay for frog Androgen Receptor (AR) (AID 2283770)
Procedure: ATG_XSP1_multi-species_TRANS is a cell-based, multiplexed assay created by modifying the existing Attagene TRANS-FACTORIAL system to include a panel of nuclear receptors from some or all the following species: human (Homo sapiens), mouse (Mus musculus), frog (Xenopus laevis), zebrafish (Danio rerio), chicken (Gallus gallus), and turtle (Chrysemys picta). The ECOTOX-FACTORIAL format uses HepG2, a human liver cell line, with measurements taken at 24 hours after chemical dosing in a 24-well plate. Xsp1 included 3 nM 6-alpha-fluorotestosterone to partially stimulate the androgen receptor.ATG_frAR_XSP1 is one of 29 assay components measured or calculated from the ATG_XSP1_multi-species_TRANS assay. It is designed to make measurements of mRNA induction, a form of inducible reporter, as detected with fluorescence intensity signals by Reverse transcription polymerase chain reaction (RT-PCR) and Capillary electrophoresis technology.The assay endpoint ATG_frAR_XSP1 was analyzed in the positive analysis fitting direction relative to DMSO as the negative control and baseline of activity. Using a type of inducible reporter, measures of mRNA for gain-of-signal activity can be used to understand the reporter gene at the transcription factor-level as they relate to the gene AR. Furthermore, this assay endpoint can be referred to as a primary readout, because this assay has produced multiple assay endpoints where this one serves a reporter gene function. To generalize the intended target to other relatable targets, this assay endpoint is annotated to the nuclear receptor intended target family, where the subfamily is steroidal.
Human liver HepG2 cells are transiently transfected with multiple reporter transcription units (MRTUs) in 6-well plates using FuGene 6 reagent (Roche; 3 ml FuGene/1 mg DNA). The MRTU constructs are regulated by a cis-regulating element (promoter). […] A major difference between the CIS and TRANS system is that in CIS activities of endogenous TFs are measured, whereas the TRANS assay evaluates changes in activities of exogenous, chimeric NR-Gal4 proteins. […] At the end of 24 hour incubation, total RNA was isolated using TriZol reagent (Invitrogen). The isolated RNA is then reverse-transcribed using oligo(dT) primer and Mo-MLV reverse transcriptase (Invitrogen) with DNAse I (Ambion) treatment for 30 min. The one-tenth of the produced cDNA was amplified by PCR using Taq DNA polymerase (Invitrogen) and two reporter sequence-specific primers. The PCR products were fluorescently labeled by primer extension with 6-arboxyfluorescein (6-FAM) 5'-labeled reporter sequence-specific primer (2 min at 95 C, 20 s at 68 C and 10 min at 72 C) and these products were digested with 5U of HpaI (New England Biolabs) for 2h at 37 C. The fragments were purified using Qiaquick PCR columns (Qiagen), analyzed on an ABI 3130xL genetic analyzer (Applied Biosystems) with peak positions identified by using a set of X-rhodamine (ROX)-labeled MapMarker1000 molecular weight standards (BioVentures). The raw capillary electrophoresis data was processed using Attagraph software (Attagene).

SMILES | AC50
CCOP(=S)(OCC)Oc1ccc2c(C)c(Cl)c(=O)oc2c1 | inconclusive: 14.7 µM
CCOP(=S)(OCC)SCn1c(=O)oc2cc(Cl)ccc21 | inconclusive: 44.5 µM
CSC(=O)c1c(C(F)F)nc(C(F)(F)F)c(C(=O)SC)c1CC(C)C | inconclusive: 3.45 µM
COC(=O)N(OC)c1ccccc1COc1ccn(-c2ccc(Cl)cc2)n1 | inconclusive: 17.2 µM
CC(C)(c1cc(Cl)c(O)c(Cl)c1)c1cc(Cl)c(O)c(Cl)c1 | inconclusive: 33.7 µM
CCc1cccc(C)c1N(C(=O)CCl)C(C)COC (stereo not given) | inconclusive: 73.6 µM
CCCCOC(=O)c1ccccc1C(=O)OCc1ccccc1 | inconclusive: 22.2 µM
C#CC(C)(C)NC(=O)c1cc(Cl)cc(Cl)c1 | inconclusive: 181 µM
CCCCC(CC)COC(=O)c1ccccc1C(=O)OCC(CC)CCCC (stereo not given) | inconclusive: 176 µM
Clc1ccc(C(c2ccc(Cl)cc2)C(Cl)(Cl)Cl)cc1 | inconclusive: 27.7 µM
CC(C)(C)CC(C)(C)c1ccc(O)cc1 | inconclusive: 10 µM
OC(c1ccc(Cl)cc1)(c1cncnc1)c1ccccc1Cl (stereo not given) | inconclusive: 27.8 µM
O=S(=O)(O)C(F)(F)C(F)(F)C(F)(F)C(F)(F)C(F)(F)C(F)(F)C(F)(F)C(F)(F)F | inconclusive: 40.9 µM
C#CCC1=C(C)C(OC(=O)C2C(C=C(C)C)C2(C)C)CC1=O (stereo not given) | inconclusive: 37 µM
O=P(Oc1ccccc1)(Oc1ccccc1)Oc1ccccc1 | inconclusive: 41 µM

As entered above.
In AC50, CC(C)(C)CC(C)(C)c1ccc(O)cc1 shows inconclusive: 10 µM
In AC50, CCOP(=S)(OCC)SCn1c(=O)oc2cc(Cl)ccc21 shows inconclusive: 44.5 µM
